In PMC7368280:

T1: EMF1-3XFLAG (in emf1) (Arabidopsis) (UniProt Q9LYD9)
T1 sequence: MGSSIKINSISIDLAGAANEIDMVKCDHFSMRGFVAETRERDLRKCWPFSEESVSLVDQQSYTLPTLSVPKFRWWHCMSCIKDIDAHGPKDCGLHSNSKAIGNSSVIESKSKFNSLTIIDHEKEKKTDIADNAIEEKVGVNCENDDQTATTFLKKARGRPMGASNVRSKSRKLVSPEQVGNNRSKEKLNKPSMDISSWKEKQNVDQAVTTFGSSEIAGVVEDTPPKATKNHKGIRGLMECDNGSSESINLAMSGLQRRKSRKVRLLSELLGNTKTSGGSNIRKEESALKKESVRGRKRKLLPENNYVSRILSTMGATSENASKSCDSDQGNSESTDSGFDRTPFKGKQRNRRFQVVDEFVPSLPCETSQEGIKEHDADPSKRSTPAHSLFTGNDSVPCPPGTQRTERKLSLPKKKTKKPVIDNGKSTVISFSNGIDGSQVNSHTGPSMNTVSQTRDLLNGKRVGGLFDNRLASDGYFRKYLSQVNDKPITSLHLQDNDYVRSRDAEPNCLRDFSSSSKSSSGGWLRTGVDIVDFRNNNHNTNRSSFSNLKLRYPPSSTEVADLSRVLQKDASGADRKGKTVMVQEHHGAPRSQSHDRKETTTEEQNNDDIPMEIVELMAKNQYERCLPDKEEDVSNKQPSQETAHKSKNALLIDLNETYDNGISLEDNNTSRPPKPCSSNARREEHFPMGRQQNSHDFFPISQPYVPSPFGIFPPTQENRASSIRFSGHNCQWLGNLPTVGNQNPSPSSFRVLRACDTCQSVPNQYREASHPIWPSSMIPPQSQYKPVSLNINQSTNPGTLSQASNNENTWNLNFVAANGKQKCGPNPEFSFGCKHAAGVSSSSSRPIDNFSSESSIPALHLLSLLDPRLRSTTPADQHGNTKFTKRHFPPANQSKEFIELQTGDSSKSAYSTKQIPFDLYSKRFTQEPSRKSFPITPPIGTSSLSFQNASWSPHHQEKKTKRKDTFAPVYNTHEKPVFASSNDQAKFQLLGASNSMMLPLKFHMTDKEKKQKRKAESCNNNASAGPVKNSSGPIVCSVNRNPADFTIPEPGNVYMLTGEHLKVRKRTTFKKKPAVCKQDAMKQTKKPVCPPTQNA

T2: ICU11-3xHA (gICU11-HA in icu11-3) (Arabidopsis) (UniProt Q3ED68)
T2 sequence: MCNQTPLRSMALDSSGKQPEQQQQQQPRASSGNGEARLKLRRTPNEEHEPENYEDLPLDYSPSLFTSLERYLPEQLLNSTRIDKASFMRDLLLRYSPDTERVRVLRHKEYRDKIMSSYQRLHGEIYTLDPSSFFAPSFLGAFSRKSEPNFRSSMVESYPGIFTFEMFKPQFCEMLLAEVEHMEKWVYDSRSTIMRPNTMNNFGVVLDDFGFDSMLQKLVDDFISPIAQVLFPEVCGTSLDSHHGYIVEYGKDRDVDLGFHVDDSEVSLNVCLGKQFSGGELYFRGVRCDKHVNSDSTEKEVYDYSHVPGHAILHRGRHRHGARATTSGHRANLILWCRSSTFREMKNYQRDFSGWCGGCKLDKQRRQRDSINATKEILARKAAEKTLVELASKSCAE

T3: ICU11-eGFP (gICU11-GFP in icu11-3) (Arabidopsis) (UniProt Q3ED68)
T3 sequence: T2 sequence

B1: EMBRYONIC FLOWER (EMF)2 (protein, UniProt Q8L6Y4 1-631)
chain: MPGIPLVSRETSSCSRSTEQMCHEDSRLRISEEEEIAAEESLAAYCKPVELYNIIQRRAIRNPLFLQRCLHYKIEAKHKRRIQMTVFLSGAIDAGVQTQKLFPLYILLARLVSPKPVAEYSAVYRFSRACILTGGLGVDGVSQAQANFLLPDMNRLALEAKSGSLAILFISFAGAQNSQFGIDSGKIHSGNIGGHCLWSKIPLQSLYASWQKSPNMDLGQRVDTVSLVEMQPCFIKLKSMSEEKCVSIQVPSNPLTSSSPQQVQVTISAEEVGSTEKSPYSSFSYNDISSSSLLQIIRLRTGNVVFNYRYYNNKLQKTEVTEDFSCPFCLVKCASFKGLRYHLPSTHDLLNFEFWVTEEFQAVNVSLKTETMISKVNEDDVDPKQQTFFFSSKKFRRRRQKSQVRSSRQGPHLGLGCEVLDKTDDAHSVRSEKSRIPPGKHYERIGGAESGQRVPPGTSPADVQSCGDPDYVQSIAGSTMLQFAKTRKISIERSDLRNRSLLQKRQFFHSHRAQPMALEQVLSDRDSEDEVDDDVADFEDRRMLDDFVDVTKDEKQMMHMWNSFVRKQRVLADGHIPWACEAFSRLHGPIMVRTPHLIWCWRVFMVKLWNHGLLDARTMNNCNTFLEQLQI
B2: SWINGER (SWN), endogenous (protein, UniProt Q9ZSM8 1-856)
chain: MVTDDSNSSGRIKSHVDDDDDGEEEEDRLEGLENRLSELKRKIQGERVRSIKEKFEANRKKVDAHVSPFSSAASSRATAEDNGNSNMLSSRMRMPLCKLNGFSHGVGDRDYVPTKDVISASVKLPIAERIPPYTTWIFLDRNQRMAEDQSVVGRRQIYYEQHGGETLICSDSEEEPEPEEEKREFSEGEDSIIWLIGQEYGMGEEVQDALCQLLSVDASDILERYNELKLKDKQNTEEFSNSGFKLGISLEKGLGAALDSFDNLFCRRCLVFDCRLHGCSQPLISASEKQPYWSDYEGDRKPCSKHCYLQLKAVREVPETCSNFASKAEEKASEEECSKAVSSDVPHAAASGVSLQVEKTDIGIKNVDSSSGVEQEHGIRGKREVPILKDSNDLPNLSNKKQKTAASDTKMSFVNSVPSLDQALDSTKGDQGGTTDNKVNRDSEADAKEVGEPIPDNSVHDGGSSICQPHHGSGNGAIIIAEMSETSRPSTEWNPIEKDLYLKGVEIFGRNSCLIARNLLSGLKTCLDVSNYMRENEVSVFRRSSTPNLLLDDGRTDPGNDNDEVPPRTRLFRRKGKTRKLKYSTKSAGHPSVWKRIAGGKNQSCKQYTPCGCLSMCGKDCPCLTNETCCEKYCGCSKSCKNRFRGCHCAKSQCRSRQCPCFAAGRECDPDVCRNCWVSCGDGSLGEAPRRGEGQCGNMRLLLRQQQRILLGKSDVAGWGAFLKNSVSKNEYLGEYTGELISHHEADKRGKIYDRANSSFLFDLNDQYVLDAQRKGDKLKFANHSAKPNCYAKVMFVAGDHRVGIFANERIEASEELFYDYRYGPDQAPVWARKPEGSKKDDSAITHRRARKHQSH
B3: FERTILIZATION … ENDOSPERM (protein, UniProt Q9LT47 1-369)
chain: MSKITLGNESIVGSLTPSNKKSYKVTNRIQEGKKPLYAVVFNFLDARFFDVFVTAGGNRITLYNCLGDGAISALQSYADEDKEESFYTVSWACGVNGNPYVAAGGVKGIIRVIDVNSETIHKSLVGHGDSVNEIRTQPLKPQLVITASKDESVRLWNVETGICILIFAGAGGHRYEVLSVDFHPSDIYRFASCGMDTTIKIWSMKEFWTYVEKSFTWTDDPSKFPTKFVQFPVFTASIHTNYVDCNRWFGDFILSKSVDNEILLWEPQLKENSPGEGASDVLLRYPVPMCDIWFIKFSCDLHLSSVAIGNQEGKVYVWDLKSCPPVLITKLSHNQSKSVIRQTAMSVDGSTILACCEDGTIWRWDVITK
B4: CURLY LEAF (CLF), endogenous (protein, UniProt P93831 1-902)
chain: MASEASPSSSATRSEPPKDSPAEERGPASKEVSEVIESLKKKLAADRCISIKKRIDENKKNLFAITQSFMRSSMERGGSCKDGSDLLVKRQRDSPGMKSGIDESNNNRYVEDGPASSGMVQGSSVPVKISLRPIKMPDIKRLSPYTTWVFLDRNQRMTEDQSVVGRRRIYYDQTGGEALICSDSEEEAIDDEEEKRDFLEPEDYIIRMTLEQLGLSDSVLAELASFLSRSTSEIKARHGVLMKEKEVSESGDNQAESSLLNKDMEGALDSFDNLFCRRCLVFDCRLHGCSQDLIFPAEKPAPWCPPVDENLTCGANCYKTLLKSGRFPGYGTIEGKTGTSSDGAGTKTTPTKFSSKLNGRKPKTFPSESASSNEKCALETSDSENGLQQDTNSDKVSSSPKVKGSGRRVGRKRNKNRVAERVPRKTQKRQKKTEASDSDSIASGSCSPSDAKHKDNEDATSSSQKHVKSGNSGKSRKNGTPAEVSNNSVKDDVPVCQSNEVASELDAPGSDESLRKEEFMGETVSRGRLATNKLWRPLEKSLFDKGVEIFGMNSCLIARNLLSGFKSCWEVFQYMTCSENKASFFGGDGLNPDGSSKFDINGNMVNNQVRRRSRFLRRRGKVRRLKYTWKSAAYHSIRKRITEKKDQPCRQFNPCNCKIACGKECPCLLNGTCCEKYCGCPKSCKNRFRGCHCAKSQCRSRQCPCFAADRECDPDVCRNCWVIGGDGSLGVPSQRGDNYECRNMKLLLKQQQRVLLGISDVSGWGAFLKNSVSKHEYLGEYTGELISHKEADKRGKIYDRENCSFLFNLNDQFVLDAYRKGDKLKFANHSPEPNCYAKVIMVAGDHRVGIFAKERILAGEELFYDYRYEPDRAPAWAKKPEAPGSKKDENVTPSVGRPKKLA
B5: TELOMERE-REPEAT-BINDING (TRB) 1 (protein, UniProt Q8VWK4 1-300)
chain: MGAPKQKWTQEEESALKSGVIKHGPGKWRTILKDPEFSGVLYLRSNVDLKDKWRNMSVMANGWGSREKSRLAVKRTFSLPKQEENSLALTNSLQSDEENVDATSGLQVSSNPPPRRPNVRLDSLIMEAIATLKEPGGCNKTTIGAYIEDQYHAPPDFKRLLSTKLKYLTSCGKLVKVKRKYRIPNSTPLSSHRRKGLGVFGGKQRTSSLPSPKTDIDEVNFQTRSQIDTEIARMKSMNVHEAAAVAAQAVAEAEAAMAEAEEAAKEAEAAEAEAEAAQAFAEEASKTLKGRNICKMMIRA

biological target: T1, EMF1-3XFLAG (in emf1) (Arabidopsis); experiment: affinity purification with mass spectrometry; coIP-MS with EMF1-3XFLAG as bait from Arabidopsis plants (EMF1-3XFLAG emf1), control Col-0; two independent experiments; procedure in SI Appendix

binding | Binder
binds | B1
binds | B2
binds | B3
binds | B4

biological target: T2, ICU11-3xHA (gICU11-HA in icu11-3) (Arabidopsis); experiment: affinity purification with mass spectrometry; coIP-MS with 3xHA-tagged ICU11 as bait from Arabidopsis plants (gICU11-HA icu11-3), control icu11-3; two independent experiments; procedure in SI Appendix

binding | Binder
binds | B1
binds | B2
binds | B3
binds | B5
binds | B4

biological target: T3, ICU11-eGFP (gICU11-GFP in icu11-3) (Arabidopsis); experiment: affinity purification with mass spectrometry; coIP-MS with GFP-tagged baits from Arabidopsis plants (gICU11-GFP icu11-3; 35S:GFP-CLF clf-50; gSWN-GFP), control 35S::GFP; two independent experiments; procedure in SI Appendix

binding | Binder
binds | B1
binds | B2
binds | B3
binds | B5
binds | B4

No constants are given. Whether binding was seen depends on the method and setting. In cells and extracts the contact can be indirect. These calls come from enrichment with a bait or labelling near it, and not all partners need be listed. Where a sequence is shown, tags or fusion partners need not be part of it.
